{
  "source": "paper PMC7862700",
  "note": "The entries are a selection whose mix differs from that of the whole data set. At the low end of the ranking, values are background and their order means little.",
  "data": [
    {"target": "T1, ETS2 (UniProt P15036)", "T1 sequence": "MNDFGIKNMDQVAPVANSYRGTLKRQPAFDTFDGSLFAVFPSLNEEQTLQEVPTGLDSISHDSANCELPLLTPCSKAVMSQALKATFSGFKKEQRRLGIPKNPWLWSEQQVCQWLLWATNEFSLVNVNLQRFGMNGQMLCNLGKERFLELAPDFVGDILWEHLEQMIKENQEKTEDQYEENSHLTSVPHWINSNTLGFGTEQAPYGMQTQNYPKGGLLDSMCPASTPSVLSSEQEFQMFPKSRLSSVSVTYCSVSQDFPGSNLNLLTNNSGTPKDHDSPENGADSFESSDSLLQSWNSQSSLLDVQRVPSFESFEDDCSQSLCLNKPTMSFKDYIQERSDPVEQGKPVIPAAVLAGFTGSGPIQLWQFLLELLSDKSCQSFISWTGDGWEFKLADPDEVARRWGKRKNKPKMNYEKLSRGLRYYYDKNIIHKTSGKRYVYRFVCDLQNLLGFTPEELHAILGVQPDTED", "assay": "DAPPL (digital affinity profiling via proximity ligation, sequencing)", "settings": "10 mM Tris-HCl pH 7.5, 50 mM NaCl, 1 mM DTT, 4% glycerol, room temperature, 30 min; GST-TFs on glutathione beads, 16-mer random dsDNA library, 0.1% …; high values mean tight binding; double strand, one strand shown; scale: fold enrichment (6-mer frequency, TF over GST control)", "values": [
      {"sequence": "CCCTCC", "binding signal": 1.51},
      {"sequence": "GTATTA", "binding signal": 1.07},
      {"sequence": "AAGTAC", "binding signal": 1.59},
      {"sequence": "AAGTCA", "binding signal": 1.21},
      {"sequence": "ACATCA", "binding signal": 1.11},
      {"sequence": "ATCGCC", "binding signal": 1.3},
      {"sequence": "CGAGCT", "binding signal": 1.07},
      {"sequence": "CTCATG", "binding signal": 1.21},
      {"sequence": "ACTTAC", "binding signal": 1.14},
      {"sequence": "TATCTA", "binding signal": 1.26},
      {"sequence": "CTTTCA", "binding signal": 1.31},
      {"sequence": "TATGAA", "binding signal": 1.27},
      {"sequence": "AAATGA", "binding signal": 1.29},
      {"sequence": "ATATTA", "binding signal": 1.06},
      {"sequence": "ATCCGC", "binding signal": 1.89},
      {"sequence": "TTTGGC", "binding signal": 1.18},
      {"sequence": "AAATGG", "binding signal": 1.54},
      {"sequence": "CCCTGG", "binding signal": 1.06},
      {"sequence": "GCCGAC", "binding signal": 1.15},
      {"sequence": "TCTTAG", "binding signal": 1.13},
      {"sequence": "TCGCAA", "binding signal": 1.05},
      {"sequence": "CTTACG", "binding signal": 1.13},
      {"sequence": "GTTTCG", "binding signal": 1.15},
      {"sequence": "TTGACA", "binding signal": 1.4},
      {"sequence": "GAATAA", "binding signal": 1.09},
      {"sequence": "TTGCGG", "binding signal": 1.21},
      {"sequence": "CATGAA", "binding signal": 1.07},
      {"sequence": "AATGAG", "binding signal": 1.2},
      {"sequence": "CCATTT", "binding signal": 1.41},
      {"sequence": "AATCGA", "binding signal": 0.998},
      {"sequence": "CCACGC", "binding signal": 1.24},
      {"sequence": "GATTCC", "binding signal": 1.14},
      {"sequence": "CCGGAA", "binding signal": 5.63},
      {"sequence": "TTGCCT", "binding signal": 1.24},
      {"sequence": "AAATTT", "binding signal": 1.35},
      {"sequence": "CGTATT", "binding signal": 1.18},
      {"sequence": "TCGTAC", "binding signal": 1.07},
      {"sequence": "TAAGAT", "binding signal": 1.19},
      {"sequence": "TCTTGC", "binding signal": 1.35}
    ]}
  ]
}
